Data taken from patent EP3240566B1 (Development Center for Biotechnology, dated 2020).
These are yes or no findings as the source states them, for the method shown. Some entries that bind do so weakly or less than the wild type.

Chains of the proteins cited; added tags and fusions are not shown.
UniProt P06733: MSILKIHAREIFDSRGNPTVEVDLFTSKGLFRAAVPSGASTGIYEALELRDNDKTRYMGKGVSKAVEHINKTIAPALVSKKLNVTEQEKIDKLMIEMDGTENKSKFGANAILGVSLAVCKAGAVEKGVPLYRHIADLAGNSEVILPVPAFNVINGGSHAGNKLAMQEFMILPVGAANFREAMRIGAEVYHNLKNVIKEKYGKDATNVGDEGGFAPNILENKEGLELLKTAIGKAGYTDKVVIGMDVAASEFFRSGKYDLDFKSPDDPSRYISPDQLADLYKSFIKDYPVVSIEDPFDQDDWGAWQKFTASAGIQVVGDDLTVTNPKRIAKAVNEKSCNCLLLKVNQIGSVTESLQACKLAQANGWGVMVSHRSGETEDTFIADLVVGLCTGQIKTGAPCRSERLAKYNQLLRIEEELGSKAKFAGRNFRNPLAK

Molecular target: T1, human ENO1 protein (human, UniProt P06733 1-434)
T1 construct: also called ENOl; alpha-enolase
Test: SPR, BIAcore 2000

binding: binds
B1: hum EN10 mAb IMGT (antibody, IgG1, V domains shown)
VH: QVQLVQSGAEVKKPGASVKVSCKASGYTFTSCVMNWVRQAPGQGLEWMGYINPYNDGTKYNEKFKGRVTMTTDTSTSTAYMELRSLRSDDTAVYYCAREGFYYGNFDNWGQGTLVTVSS
VL: DIQMTQSPSSLSASVGDRVTITCRASENIYSYLTWYQQKPGKAPKLLIYNAKTLPEGVPSRFSGSGSGTDFTLTISSLQPEDFATYYCQHHYGTPYTFGQGTKLEIKR
notes: also called humanized EN10 mAb IMGT; Hum EN10 IMGT
